Reference: patent US12336972B2, “Synergistic nutritional compositions for treating neurocognitive disorders” (CELAGENEX RESEARCH (INDIA) PVT. LTD., priority 2021, dated 2025)

Test system: Brain-derived neurotrophic factor (BDNF)
Experiment: Neurotrophic factors: BDNF in serum
Assay type: in vivo, Swiss albino mice

SMILES: COc1cc2c(cc1OC)C(=O)C(CC1CCN(Cc3ccccc3)CC1)C2 (stereo not shown) [Group 3, Donepezil]
- BDNF in Serum (Average of 6 animals): 19.85 ng/mL
- BDNF in Serum (animal 1): 18.10 ng/mL
- BDNF in Serum (animal 2): 19.00 ng/mL
- BDNF in Serum (animal 3): 21.50 ng/mL
- BDNF in Serum (animal 4): 20.00 ng/mL
- BDNF in Serum (animal 5): 22.00 ng/mL
- BDNF in Serum (animal 6): 18.50 ng/mL
